Source: PubChem BioAssay AID2147 (National Center for Advancing Translational Sciences (NCATS), 2009)
The whole screen tested about 230,000 compounds, of which about 3,600 (1.6%) were called active. Listed are the inconclusive results; actives and inactives stand elsewhere. Calls follow the shape of the dose curve; as a rule, active = well fitted inhibition curve with a large enough effect (not every such curve was filed as active); inconclusive = small, poorly fitted or top-dose-only effect, or another doubt; inactive = no such curve, though single readings can be large or run the other way. Some salts and complexes are drawn in separate pieces, as the source files them; their charges need not balance.

By UniProt entry, the sequences of proteins in these tests, tags left out. Residues count along the entry.
UniProt B2RXH2, 1-337 limits assumed: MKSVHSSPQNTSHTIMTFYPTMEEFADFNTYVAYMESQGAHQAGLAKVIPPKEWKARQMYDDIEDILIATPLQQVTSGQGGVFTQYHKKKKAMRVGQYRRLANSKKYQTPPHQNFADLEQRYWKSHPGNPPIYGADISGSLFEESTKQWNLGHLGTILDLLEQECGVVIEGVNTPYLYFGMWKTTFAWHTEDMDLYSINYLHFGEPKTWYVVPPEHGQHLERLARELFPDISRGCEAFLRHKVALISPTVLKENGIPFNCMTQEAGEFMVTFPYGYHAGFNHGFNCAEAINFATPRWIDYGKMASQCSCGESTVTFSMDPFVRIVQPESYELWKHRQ

Target: Lysine-specific demethylase 4E (Homo sapiens) (UniProt B2RXH2)
Experiment: qHTS Assay for Inhibitors of Human Jumonji Domain Containing 2E (JMJD2E)
Details: JMJD2E catalytic domain, FDH-coupled NADH fluorescence (FDH is formaldehyde dehydrogenase)
Also: nearly all actives have a fitted effect of over 50% in size.
Potency is read from the fitted curve at half-maximal effect.

Question: How did the Potency turn out when CCN1CCC(Nc2cccc(F)c2)CC1 was run?
Answer: Its Potency is inconclusive: 39.8 µM.

Question: For Fc1ccccc1NC1CCN(Cc2ccccc2)CC1, which Potency is on record?
Answer: The Potency was inconclusive: 39.8 µM.

Question: Which Potency does the source give for O=C(OC1CN2CCC1CC2)C1c2ccccc2C=Cc2ccccc21 (stereo not given) here?
Answer: Its Potency is inconclusive: 28.2 µM.

Question: COc1ccc2c(c1O)-c1c(O)c(OC)cc3c1[C@H](C2)[N+](C)(C)CC3.O=[N+]([O-])c1cc([N+](=O)[O-])c([O-])c([N+](=O)[O-])c1[O-] was tested. Which Potency did it give?
Answer: The Potency was inconclusive: 28.2 µM.

Question: How did the Potency turn out when CN(C)c1cccc(C(=O)NCC2(N3CCCCC3)CCCCC2)c1 was run?
Answer: The Potency was inconclusive: 11.2 µM.
